This data set in a line: general procedure: Fmoc solid-phase peptide synthesis; Rink amide MBHA resin (0.70 mmol/g); HBTU/DIEA. To be noted: for conjugation yield: conjugation step, conversion by HPLC peak area at 220 nm; for crude HPLC purity: whole synthesis, analytical RP-HPLC, scale of the general procedure 0.1 mmol.

“Neu5Ac-α2,6-Gal-β1,4-GlcNAc-Aoa(m)-GFKKG”: the conjugation yield amounted to 46%.

For Gal-β1,6-GlcNAc-Aoa(m)-GFKKG, the conjugation yield is reported as 33%.

Substance Man-α1,6-Man-Aoa(m)-GFKKG returned a conjugation yield of 43%.

Consider Ac-GFKKG-amide, for which the “crude HPLC purity” value is given as more than 95%.

The substance Gal-β1,3-GlcNAc-Aoa(m)-GFKKG gave a conjugation yield of 51%.

On to Gal-β1,4-GlcNAc-Aoa(m)-GFKKG, for which the conjugation yield turned out to be 69%.

For the substance N[Me]-O-Aoa-GFKKG-amide, the “crude HPLC purity” value is on record as more than 95%.

Fuc-α1,6-GlcNAc-Aoa(m)-GFKKG came in with a conjugation yield of 55%.

As to “Neu5Ac-α2,3-Gal-β1,4-GlcNAc-Aoa(m)-GFKKG”, the conjugation yield is 54%.

With Fuc-α1,3-GlcNAc-Aoa(m)-GFKKG, the conjugation yield turned out to be 9%.

Fuc-α1,4-GlcNAc-Aoa(m)-GFKKG: the conjugation yield is given as 16%.

For Man-α1,2-Man-Aoa(m)-GFKKG, the conjugation yield was found to be 12%.

Take Man-α1,3-Man-Aoa(m)-GFKKG: the conjugation yield was 42%.

The record behind these values is paper PMC5979539 (International Journal of Molecular Sciences, 2018).
